Reference: publication PMC5548489
No constants are given. Whether binding was seen depends on the method and setting. In cells and extracts the contact can be indirect. A yes stands for co-enrichment or nearness to the bait. Other partners may have been found.

Protein sequences, listed by entry. Tags and fused reporters are not part of them.
UniProt P49792: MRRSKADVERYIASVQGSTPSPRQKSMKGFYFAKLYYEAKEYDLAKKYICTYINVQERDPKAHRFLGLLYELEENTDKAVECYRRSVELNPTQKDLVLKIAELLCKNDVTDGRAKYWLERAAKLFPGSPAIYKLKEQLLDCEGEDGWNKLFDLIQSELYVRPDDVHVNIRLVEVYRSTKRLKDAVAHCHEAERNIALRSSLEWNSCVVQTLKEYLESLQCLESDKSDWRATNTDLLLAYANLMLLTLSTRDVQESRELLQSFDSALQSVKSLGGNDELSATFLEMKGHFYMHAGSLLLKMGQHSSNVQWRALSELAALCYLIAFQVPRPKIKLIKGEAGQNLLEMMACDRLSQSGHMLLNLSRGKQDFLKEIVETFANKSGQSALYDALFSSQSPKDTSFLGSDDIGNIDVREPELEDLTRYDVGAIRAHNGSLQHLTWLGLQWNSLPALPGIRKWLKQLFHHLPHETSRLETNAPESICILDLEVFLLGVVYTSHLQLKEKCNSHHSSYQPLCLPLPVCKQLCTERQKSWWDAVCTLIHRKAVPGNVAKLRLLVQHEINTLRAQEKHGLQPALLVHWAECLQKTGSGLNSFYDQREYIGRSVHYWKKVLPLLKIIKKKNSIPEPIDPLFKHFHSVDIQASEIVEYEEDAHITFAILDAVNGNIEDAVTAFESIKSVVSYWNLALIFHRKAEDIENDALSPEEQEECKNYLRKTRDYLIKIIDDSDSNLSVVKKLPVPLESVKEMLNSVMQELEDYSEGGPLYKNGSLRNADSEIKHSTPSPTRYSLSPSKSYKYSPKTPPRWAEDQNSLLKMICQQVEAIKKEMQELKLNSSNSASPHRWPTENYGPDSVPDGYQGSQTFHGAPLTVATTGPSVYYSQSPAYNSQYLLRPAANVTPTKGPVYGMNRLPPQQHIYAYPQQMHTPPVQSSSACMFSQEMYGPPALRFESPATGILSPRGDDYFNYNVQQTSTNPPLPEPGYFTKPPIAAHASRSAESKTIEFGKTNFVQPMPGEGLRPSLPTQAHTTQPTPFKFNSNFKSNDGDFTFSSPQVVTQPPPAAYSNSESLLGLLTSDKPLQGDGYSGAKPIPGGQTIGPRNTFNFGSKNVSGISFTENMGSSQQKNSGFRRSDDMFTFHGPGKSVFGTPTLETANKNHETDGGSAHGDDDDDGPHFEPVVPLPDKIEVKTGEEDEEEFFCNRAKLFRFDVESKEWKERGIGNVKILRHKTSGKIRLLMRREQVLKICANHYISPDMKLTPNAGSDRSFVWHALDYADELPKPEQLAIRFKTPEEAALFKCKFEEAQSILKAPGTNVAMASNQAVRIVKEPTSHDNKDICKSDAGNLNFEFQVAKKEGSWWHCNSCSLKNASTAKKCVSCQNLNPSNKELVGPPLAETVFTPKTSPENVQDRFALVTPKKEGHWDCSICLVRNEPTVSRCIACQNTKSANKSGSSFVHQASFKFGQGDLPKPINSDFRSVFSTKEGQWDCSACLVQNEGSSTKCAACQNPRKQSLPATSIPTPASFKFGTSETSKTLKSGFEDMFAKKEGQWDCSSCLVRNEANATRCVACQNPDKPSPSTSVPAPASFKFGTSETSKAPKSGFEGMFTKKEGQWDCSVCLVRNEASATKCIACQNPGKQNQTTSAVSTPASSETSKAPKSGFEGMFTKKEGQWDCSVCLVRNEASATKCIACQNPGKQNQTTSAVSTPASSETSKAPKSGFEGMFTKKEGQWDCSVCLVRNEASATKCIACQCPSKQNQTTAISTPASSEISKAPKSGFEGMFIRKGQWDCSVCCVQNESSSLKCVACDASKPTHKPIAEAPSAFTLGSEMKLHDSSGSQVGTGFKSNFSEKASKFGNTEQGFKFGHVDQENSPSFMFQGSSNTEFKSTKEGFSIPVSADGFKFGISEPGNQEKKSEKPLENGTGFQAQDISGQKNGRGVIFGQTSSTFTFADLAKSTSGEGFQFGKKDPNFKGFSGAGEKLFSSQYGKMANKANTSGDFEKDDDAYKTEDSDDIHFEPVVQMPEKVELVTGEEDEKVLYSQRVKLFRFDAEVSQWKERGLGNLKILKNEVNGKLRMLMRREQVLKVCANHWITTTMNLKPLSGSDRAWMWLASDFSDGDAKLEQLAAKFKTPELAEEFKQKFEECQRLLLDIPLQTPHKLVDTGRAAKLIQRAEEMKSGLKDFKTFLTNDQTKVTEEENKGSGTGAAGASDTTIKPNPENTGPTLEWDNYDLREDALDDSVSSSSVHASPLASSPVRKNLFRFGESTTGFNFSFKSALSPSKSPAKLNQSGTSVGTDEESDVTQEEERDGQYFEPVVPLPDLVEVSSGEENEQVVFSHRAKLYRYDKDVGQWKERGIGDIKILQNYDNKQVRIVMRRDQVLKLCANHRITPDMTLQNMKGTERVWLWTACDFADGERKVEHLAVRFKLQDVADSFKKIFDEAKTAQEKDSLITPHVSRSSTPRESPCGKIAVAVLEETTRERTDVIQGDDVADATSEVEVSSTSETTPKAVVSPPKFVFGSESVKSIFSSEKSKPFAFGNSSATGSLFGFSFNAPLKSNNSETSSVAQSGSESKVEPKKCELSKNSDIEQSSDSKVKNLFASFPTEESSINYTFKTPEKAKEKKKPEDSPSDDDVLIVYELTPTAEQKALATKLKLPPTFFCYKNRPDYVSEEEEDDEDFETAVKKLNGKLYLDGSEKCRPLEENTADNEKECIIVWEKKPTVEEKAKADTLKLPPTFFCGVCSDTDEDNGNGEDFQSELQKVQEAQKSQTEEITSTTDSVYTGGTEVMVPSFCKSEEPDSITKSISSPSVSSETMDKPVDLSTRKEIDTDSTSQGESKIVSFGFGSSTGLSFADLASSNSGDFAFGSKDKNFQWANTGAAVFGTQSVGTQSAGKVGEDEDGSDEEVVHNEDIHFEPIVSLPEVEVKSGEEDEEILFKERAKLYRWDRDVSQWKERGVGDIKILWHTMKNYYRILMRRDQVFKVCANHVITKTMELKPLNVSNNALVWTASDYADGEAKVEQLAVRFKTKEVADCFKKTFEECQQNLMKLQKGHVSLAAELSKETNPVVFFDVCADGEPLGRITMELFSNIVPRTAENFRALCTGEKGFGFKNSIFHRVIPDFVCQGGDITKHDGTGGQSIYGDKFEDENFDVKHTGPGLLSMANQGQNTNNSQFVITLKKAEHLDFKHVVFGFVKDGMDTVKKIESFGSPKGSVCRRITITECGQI
UniProt Q00610: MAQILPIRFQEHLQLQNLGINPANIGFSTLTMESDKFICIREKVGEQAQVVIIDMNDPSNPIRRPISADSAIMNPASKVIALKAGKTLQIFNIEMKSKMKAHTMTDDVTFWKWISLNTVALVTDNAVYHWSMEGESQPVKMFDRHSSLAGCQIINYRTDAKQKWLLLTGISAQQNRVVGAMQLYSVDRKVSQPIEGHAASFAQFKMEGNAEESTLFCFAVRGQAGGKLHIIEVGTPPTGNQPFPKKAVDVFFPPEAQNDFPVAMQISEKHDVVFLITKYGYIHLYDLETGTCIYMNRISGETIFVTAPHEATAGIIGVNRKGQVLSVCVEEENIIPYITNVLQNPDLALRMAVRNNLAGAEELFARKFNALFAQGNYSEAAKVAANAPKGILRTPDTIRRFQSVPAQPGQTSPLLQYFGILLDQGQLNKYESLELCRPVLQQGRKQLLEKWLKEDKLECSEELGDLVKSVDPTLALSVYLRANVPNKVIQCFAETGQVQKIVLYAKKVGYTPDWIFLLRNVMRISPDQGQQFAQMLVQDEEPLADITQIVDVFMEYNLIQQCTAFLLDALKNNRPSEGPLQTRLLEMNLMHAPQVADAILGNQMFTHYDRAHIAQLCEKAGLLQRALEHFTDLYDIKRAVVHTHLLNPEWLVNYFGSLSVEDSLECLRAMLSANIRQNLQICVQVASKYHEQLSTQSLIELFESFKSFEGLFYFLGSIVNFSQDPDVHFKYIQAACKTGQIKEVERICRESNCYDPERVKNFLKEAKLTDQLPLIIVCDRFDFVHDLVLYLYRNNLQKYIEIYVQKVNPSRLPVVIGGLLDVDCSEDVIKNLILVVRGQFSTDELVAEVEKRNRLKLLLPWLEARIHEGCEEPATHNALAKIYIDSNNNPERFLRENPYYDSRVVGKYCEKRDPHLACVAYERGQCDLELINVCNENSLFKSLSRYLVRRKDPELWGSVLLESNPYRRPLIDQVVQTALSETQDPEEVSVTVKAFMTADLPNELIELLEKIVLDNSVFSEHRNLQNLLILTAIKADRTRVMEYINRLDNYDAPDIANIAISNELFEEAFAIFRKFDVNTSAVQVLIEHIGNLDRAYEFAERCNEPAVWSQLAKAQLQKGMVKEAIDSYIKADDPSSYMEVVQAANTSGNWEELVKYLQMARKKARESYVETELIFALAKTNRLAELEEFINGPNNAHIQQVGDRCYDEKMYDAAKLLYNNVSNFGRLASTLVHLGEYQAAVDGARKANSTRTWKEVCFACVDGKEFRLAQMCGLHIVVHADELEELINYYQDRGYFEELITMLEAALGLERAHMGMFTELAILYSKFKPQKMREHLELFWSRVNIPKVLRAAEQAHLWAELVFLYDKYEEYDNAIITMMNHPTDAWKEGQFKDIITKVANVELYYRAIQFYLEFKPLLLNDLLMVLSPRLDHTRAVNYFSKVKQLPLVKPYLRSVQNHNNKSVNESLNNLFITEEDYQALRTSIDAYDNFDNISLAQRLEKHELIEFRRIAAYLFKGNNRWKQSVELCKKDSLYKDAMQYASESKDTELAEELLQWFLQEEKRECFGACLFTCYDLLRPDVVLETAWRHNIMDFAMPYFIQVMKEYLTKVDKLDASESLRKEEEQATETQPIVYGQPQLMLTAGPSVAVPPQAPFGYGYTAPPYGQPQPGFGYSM
UniProt O60506: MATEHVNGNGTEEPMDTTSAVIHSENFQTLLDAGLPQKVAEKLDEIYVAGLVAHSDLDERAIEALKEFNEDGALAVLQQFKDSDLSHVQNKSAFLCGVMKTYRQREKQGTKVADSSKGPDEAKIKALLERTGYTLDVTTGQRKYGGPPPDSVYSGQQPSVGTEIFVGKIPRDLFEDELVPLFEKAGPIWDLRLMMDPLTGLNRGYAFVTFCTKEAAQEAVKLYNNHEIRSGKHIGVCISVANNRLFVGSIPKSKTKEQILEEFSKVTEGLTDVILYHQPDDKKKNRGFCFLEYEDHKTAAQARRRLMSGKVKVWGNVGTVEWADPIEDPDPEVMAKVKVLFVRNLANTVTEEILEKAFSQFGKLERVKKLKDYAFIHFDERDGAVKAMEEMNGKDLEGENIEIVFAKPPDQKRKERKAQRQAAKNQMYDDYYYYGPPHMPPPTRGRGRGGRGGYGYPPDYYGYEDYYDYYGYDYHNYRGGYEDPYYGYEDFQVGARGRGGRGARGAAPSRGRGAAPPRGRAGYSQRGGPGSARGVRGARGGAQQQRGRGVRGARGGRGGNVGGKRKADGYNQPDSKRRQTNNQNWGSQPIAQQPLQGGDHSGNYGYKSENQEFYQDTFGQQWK
UniProt Q96KP1: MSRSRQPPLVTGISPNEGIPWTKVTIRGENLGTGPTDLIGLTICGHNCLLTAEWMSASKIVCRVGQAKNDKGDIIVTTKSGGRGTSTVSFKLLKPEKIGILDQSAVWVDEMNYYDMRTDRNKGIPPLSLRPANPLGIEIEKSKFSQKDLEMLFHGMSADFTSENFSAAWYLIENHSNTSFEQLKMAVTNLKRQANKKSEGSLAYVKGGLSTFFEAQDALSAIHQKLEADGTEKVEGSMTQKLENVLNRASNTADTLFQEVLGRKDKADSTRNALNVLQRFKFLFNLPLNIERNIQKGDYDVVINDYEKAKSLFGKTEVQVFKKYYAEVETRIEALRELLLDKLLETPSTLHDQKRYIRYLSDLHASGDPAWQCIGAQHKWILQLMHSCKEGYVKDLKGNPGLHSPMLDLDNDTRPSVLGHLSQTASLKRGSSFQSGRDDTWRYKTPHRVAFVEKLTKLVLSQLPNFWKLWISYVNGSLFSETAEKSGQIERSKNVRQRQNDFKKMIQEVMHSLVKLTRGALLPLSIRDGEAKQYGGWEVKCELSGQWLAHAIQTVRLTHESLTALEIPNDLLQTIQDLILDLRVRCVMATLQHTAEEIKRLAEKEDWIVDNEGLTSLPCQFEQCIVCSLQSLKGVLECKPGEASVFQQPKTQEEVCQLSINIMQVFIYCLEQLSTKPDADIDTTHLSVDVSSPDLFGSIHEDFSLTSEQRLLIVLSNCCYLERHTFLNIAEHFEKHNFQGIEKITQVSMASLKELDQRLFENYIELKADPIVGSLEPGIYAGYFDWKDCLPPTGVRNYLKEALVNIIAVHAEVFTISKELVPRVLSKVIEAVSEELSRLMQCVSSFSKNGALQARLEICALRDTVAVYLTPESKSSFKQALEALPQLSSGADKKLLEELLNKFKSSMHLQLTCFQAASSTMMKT

B1: COG1 (protein, UniProt Q8WTW3 1-980)
chain: MATAATSPALKRLDLRDPAALFETHGAEEIRGLERQVRAEIEHKKEELRQMVGERYRDLIEAADTIGQMRRCAVGLVDAVKATDQYCARLRQAGSAAPRPPRAQQPQQPSQEKFYSMAAQIKLLLEIPEKIWSSMEASQCLHATQLYLLCCHLHSLLQLDSSSSRYSPVLSRFPILIRQVAAASHFRSTILHESKMLLKCQGVSDQAVAEALCSIMLLEESSPRQALTDFLLARKATIQKLLNQPHHGAGIKAQICSLVELLATTLKQAHALFYTLPEGLLPDPALPCGLLFSTLETITGQHPAGKGTGVLQEEMKLCSWFKHLPASIVEFQPTLRTLAHPISQEYLKDTLQKWIHMCNEDIKNGITNLLMYVKSMKGLAGIRDAMWELLTNESTNHSWDVLCRRLLEKPLLFWEDMMQQLFLDRLQTLTKEGFDSISSSSKELLVSALQELESSTSNSPSNKHIHFEYNMSLFLWSESPNDLPSDAAWVSVANRGQFASSGLSMKAQAISPCVQNFCSALDSKLKVKLDDLLAYLPSDDSSLPKDVSPTQAKSSAFDRYADAGTVQEMLRTQSVACIKHIVDCIRAELQSIEEGVQGQQDALNSAKLHSVLFMARLCQSLGELCPHLKQCILGKSESSEKPAREFRALRKQGKVKTQEIIPTQAKWQEVKEVLLQQSVMGYQVWSSAVVKVLIHGFTQSLLLDDAGSVLATATSWDELEIQEEAESGSSVTSKIRLPAQPSWYVQSFLFSLCQEINRVGGHALPKVTLQEMLKSCMVQVVAAYEKLSEEKQIKKEGAFPVTQNRALQLLYDLRYLNIVLTAKGDEVKSGRSKPDSRIEKVTDHLEALIDPFDLDVFTPHLNSNLHRLVQRTSVLFGLVTGTENQLAPRSSTFNSQEPHNILPLASSQIRFGLLPLSMTSTRKAKSTRNIETKAQVVPPARSTAGDPTVPGSLFRQLVSEEDNTSAPSLFKLGWLSSMTK
B2: COG3 (protein, UniProt Q96JB2 1-828)
chain: MAEAALLLLPEAAAERDAREKLALWDRRPDTTAPLTDRQTDSVLELKAAAENLPVPAELPIEDLCSLTSQSLPIELTSVVPESTEDILLKGFTSLGMEEERIETAQQFFSWFAKLQTQMDQDEGTKYRQMRDYLSGFQEQCDAILNDVNSALQHLESLQKQYLFVSNKTGTLHEACEQLLKEQSELVDLAENIQQKLSYFNELETINTKLNSPTLSVNSDGFIPMLAKLDDCITYISSHPNFKDYPIYLLKFKQCLSKALHLMKTYTVNTLQTLTSQLLKRDPSSVPNADNAFTLFYVKFRAAAPKVRTLIEQIELRSEKIPEYQQLLNDIHQCYLDQRELLLGPSIACTVAELTSQNNRDHCALVRSGCAFMVHVCQDEHQLYNEFFTKPTSKLDELLEKLCVSLYDVFRPLIIHVIHLETLSELCGILKNEVLEDHVQNNAEQLGAFAAGVKQMLEDVQERLVYRTHIYIQTDITGYKPAPGDLAYPDKLVMMEQIAQSLKDEQKKVPSEASFSDVHLEEGESNSLTKSGSTESLNPRPQTTISPADLHGMWYPTVRRTLVCLSKLYRCIDRAVFQGLSQEALSACIQSLLGASESISKNKTQIDGQLFLIKHLLILREQIAPFHTEFTIKEISLDLKKTRDAAFKILNPMTVPRFFRLNSNNALIEFLLEGTPEIREHYLDSKKDVDRHLKSACEQFIQQQTKLFVEQLEEFMTKVSALKTMASQGGPKYTLSQQPWAQPAKVNDLAATAYKTIKTKLPVTLRSMSLYLSNKDTEFILFKPVRNNIQQVFQKFHALLKEEFSPEDIQIIACPSMEQLSLLLLVSK

These molecules were tested against estrogen receptor alpha (ER) (human (endogenous in MCF-7 and ZR-75)) (UniProt P03372) (assay: affinity purification with mass spectrometry; anti-ER antibody (Santa Cruz sc-8002) on Dynabeads Protein G, 1.5 mg lysate of MCF-7 or ZR-75 cells overnight at 4°C; cells starved, vehicle or 10 µM ERX-11 for 2 hr, then 10 nM E2 for 2 hr; the named proteins are ER binders whose co-precipitation was disrupted by ERX-11).

binding, binds:
TUBB (from UniProt P07437 1-444), COPB1 (from UniProt P53618 1-953), PELP1 (from UniProt Q8IZL8 1-1130), PSMD5 (from UniProt Q16401 1-504), DDX17 (from UniProt Q92841 1-729), GEMIN5 (from UniProt Q8TEQ6 1-1508), SMARCC2 (from UniProt Q8TAQ2 1-1214), NUP153 (from UniProt P49790 1-1475), DIDO1 (from UniProt Q9BTC0 1-2240), ZBTB7A (from UniProt O95365 1-584), TNPO1 (from UniProt Q92973 1-898), PCF11 (from UniProt O94913 1-1555), EXOC3 (from UniProt O60645 1-745), DHX15 (from UniProt O43143 1-795), SMC4 (from UniProt Q9NTJ3 1-1288), DDX20 (from UniProt Q9UHI6 1-824), EIF2S2 (from UniProt P20042 1-333), RANBP2 (from UniProt P49792 1-3224), TRIM33 (from UniProt Q9UPN9 1-1127), HNRNPK (from UniProt P61978 1-463), NUMA1 (from UniProt Q14980 1-2115), SF3B3 (from UniProt Q15393 1-1217), PRPF40a (from UniProt O75400 1-957), KPNB1 (from UniProt Q14974 1-876), VCP (from UniProt P55072 1-806), CLTC (from UniProt Q00610 1-1675), AP2A2 (from UniProt O94973 1-939), SYNCRIP (from UniProt O60506 1-623), RAD50 (from UniProt Q92878 1-1312), INTS4 (from UniProt Q96HW7 1-963), PSMC4 (from UniProt P43686 1-418), PSMD3 (from UniProt O43242 1-534), POLR3C (from UniProt Q9BUI4 1-534), KPNA4 (from UniProt O00629 1-521), PPP2R1A (from UniProt P30153 1-589), ACTN4 (from UniProt O43707 1-911), EIF4G2 (from UniProt P78344 1-907), PPP3CA (from UniProt Q08209 1-521), SMARCA2 (from UniProt P51531 1-1590), ZCCHC8 (from UniProt Q6NZY4 1-707), GTF2I (from UniProt P78347 1-998), ZNF217 (from UniProt O75362 1-1048), DMAP1 (from UniProt Q9NPF5 1-467), SF3B1 (from UniProt O75533 1-1304), SEC23A (from UniProt Q15436 1-765), PSIP1 (from UniProt O75475 1-530), PSMC1 (from UniProt P62191 1-440), MCM2 (from UniProt P49736 1-904), EP400 (from UniProt Q96L91 1-3159), MED1 (from UniProt Q15648 1-1581), SMARCA4 (from UniProt P51532 1-1647), SMARCD2 (from UniProt Q92925 1-531), PREX1 (from UniProt Q8TCU6 1-1659), CPSF3L (from UniProt Q5TA45 1-600), ACTN1 (from UniProt P12814 1-892), SMC3 (from UniProt Q9UQE7 1-1217), TUBA1B (from UniProt P68363 1-451), TRAM1 (from UniProt Q15629 1-374), EXOC5 (from UniProt O00471 1-708), INTS5 (from UniProt Q6P9B9 1-1019), EPRS (from UniProt P07814 1-1512), CHD1L (from UniProt Q86WJ1 1-897), INTS2 (from UniProt Q9H0H0 1-1196), CSE1L (from UniProt P55060 1-971), DYNC1H1 (from UniProt Q14204 1-4646), NCBP1 (from UniProt Q09161 1-790), SCRIB (from UniProt Q14160 1-1655), DDX23 (from UniProt Q9BUQ8 1-820), SMCHD1 (from UniProt A6NHR9 1-2005), EXOC4 (from UniProt Q96A65 1-974), EXOC8 (from UniProt Q8IYI6 1-725), AHNAK (from UniProt Q09666 1-5890), RBM10 (from UniProt P98175 1-930), Coatomer subunit alpha (from UniProt P53621 1-1224), EXOC2 (from UniProt Q96KP1 1-924), CUL4B (from UniProt Q13620 1-913), KDM3B (from UniProt Q7LBC6 1-1761)

Biological target: estrogen receptor alpha (ER) (human (endogenous in MCF-7 and ZR-75)) (UniProt P03372)
Test: as above
Remark: another data set of the same source

binding, binds:
B1, B2
